Experimental data as given in publication PMC9226508.
Results are given in words; binding and its absence hold for the method and conditions named. In cells and extracts the contact can be indirect. Some binding calls cover weakened binding; strength is not graded here.

Protein sequences, listed by entry. Tags and fused reporters are not part of them.
UniProt O75362: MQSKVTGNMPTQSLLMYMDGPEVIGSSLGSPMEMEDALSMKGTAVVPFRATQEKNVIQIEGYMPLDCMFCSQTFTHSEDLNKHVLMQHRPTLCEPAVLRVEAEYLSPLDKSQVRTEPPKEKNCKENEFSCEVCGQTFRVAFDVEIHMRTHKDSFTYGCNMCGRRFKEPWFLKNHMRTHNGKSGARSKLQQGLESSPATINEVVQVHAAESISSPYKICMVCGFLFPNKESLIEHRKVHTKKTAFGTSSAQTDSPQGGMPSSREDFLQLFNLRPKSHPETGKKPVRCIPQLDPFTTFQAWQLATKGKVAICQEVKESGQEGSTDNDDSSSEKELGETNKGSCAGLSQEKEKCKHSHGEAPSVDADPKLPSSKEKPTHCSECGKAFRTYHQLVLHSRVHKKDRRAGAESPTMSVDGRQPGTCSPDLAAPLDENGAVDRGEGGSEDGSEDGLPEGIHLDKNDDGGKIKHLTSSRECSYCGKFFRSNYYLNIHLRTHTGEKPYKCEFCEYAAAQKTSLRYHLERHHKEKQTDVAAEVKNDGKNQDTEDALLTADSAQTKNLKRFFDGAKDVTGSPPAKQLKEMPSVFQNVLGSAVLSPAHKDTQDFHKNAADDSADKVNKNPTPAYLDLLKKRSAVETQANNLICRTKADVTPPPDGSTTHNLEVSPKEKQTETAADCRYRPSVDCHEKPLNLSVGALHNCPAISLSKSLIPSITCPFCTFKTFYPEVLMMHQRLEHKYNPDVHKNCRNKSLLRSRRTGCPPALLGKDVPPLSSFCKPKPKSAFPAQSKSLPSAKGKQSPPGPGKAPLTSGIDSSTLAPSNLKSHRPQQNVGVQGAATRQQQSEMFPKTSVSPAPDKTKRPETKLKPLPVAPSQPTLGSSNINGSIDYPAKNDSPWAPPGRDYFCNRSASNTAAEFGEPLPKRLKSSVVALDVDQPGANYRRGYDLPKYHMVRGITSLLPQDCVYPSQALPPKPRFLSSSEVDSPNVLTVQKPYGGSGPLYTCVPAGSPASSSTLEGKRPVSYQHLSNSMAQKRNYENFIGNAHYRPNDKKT
UniProt Q13547: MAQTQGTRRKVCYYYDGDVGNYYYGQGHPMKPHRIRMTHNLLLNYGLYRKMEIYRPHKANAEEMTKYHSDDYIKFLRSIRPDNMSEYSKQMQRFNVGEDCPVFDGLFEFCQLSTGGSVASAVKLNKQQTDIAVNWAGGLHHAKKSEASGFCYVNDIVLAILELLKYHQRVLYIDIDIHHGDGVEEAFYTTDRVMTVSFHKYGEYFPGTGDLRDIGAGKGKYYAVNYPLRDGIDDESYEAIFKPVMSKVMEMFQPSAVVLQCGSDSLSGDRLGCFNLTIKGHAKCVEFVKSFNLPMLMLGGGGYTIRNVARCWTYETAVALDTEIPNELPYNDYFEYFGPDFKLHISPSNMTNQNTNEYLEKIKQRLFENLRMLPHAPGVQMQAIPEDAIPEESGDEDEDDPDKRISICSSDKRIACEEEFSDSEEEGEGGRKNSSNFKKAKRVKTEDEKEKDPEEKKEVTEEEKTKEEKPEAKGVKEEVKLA
UniProt P08047: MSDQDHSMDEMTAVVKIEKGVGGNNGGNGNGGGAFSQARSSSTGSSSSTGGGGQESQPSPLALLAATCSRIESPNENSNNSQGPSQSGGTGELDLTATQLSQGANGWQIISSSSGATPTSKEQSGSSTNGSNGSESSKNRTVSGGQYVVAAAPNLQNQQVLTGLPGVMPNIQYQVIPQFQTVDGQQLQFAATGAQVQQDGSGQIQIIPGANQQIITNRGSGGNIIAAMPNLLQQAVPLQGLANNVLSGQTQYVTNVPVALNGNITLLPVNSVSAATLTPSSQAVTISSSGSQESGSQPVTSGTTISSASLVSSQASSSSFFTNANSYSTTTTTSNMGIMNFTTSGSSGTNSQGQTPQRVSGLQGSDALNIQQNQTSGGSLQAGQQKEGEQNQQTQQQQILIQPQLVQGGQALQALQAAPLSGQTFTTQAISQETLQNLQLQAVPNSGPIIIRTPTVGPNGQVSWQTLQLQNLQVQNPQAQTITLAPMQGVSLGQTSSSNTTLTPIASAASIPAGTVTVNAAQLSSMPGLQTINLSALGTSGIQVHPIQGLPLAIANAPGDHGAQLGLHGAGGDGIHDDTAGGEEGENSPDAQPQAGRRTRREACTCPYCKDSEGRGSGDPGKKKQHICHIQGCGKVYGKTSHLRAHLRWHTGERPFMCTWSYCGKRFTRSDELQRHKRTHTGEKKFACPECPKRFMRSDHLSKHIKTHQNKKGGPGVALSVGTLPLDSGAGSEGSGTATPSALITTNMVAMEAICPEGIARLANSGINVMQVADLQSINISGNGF

What was measured:
[1] = biological target: T1, T-Box 2 (TBX2) (human (endogenous in MCF7, T47D, BT474)) (UniProt Q13207); experiment: co-IP; endogenous TBX2 precipitated with anti-TBX2 antibody from BT474 lysate (Figure 4C; also after SP-2509, Supplementary Figure S2) or from MCF7 lysate with mouse monoclonal D-3 or rabbit polyclonal ab33298 (Figure 6A); ELB: 300 mM NaCl, 0.1% IGEPAL CA-630; Dynabeads Protein G, 4°C; species-matched IgG as control IP; Western blot
T1 sequence: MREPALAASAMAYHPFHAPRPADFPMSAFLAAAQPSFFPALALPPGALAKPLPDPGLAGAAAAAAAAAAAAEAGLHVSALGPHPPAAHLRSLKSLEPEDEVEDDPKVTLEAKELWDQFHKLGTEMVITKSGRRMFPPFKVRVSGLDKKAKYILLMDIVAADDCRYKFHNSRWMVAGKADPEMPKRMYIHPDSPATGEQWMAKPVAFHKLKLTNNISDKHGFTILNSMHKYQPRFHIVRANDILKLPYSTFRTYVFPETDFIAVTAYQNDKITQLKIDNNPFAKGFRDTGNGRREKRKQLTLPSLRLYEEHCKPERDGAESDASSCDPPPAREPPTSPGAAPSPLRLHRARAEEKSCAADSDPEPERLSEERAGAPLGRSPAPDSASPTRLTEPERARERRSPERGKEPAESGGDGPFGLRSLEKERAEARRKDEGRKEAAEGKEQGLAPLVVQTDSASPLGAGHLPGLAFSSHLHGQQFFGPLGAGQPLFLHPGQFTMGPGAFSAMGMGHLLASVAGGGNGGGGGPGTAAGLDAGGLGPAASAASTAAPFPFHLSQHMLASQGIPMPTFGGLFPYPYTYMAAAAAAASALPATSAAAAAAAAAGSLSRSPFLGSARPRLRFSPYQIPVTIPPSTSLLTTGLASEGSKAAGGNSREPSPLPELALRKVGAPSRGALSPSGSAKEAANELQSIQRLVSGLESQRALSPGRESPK

[2] = biological target: ZNF217 (human (endogenous in MCF7, BT474)) (UniProt O75362); experiment: co-IP; endogenous ZNF217 precipitated with anti-ZNF217 antibody from MCF7 and BT474 lysates (ELB: 300 mM NaCl, 0.1% IGEPAL CA-630), Dynabeads Protein G, 4°C; species-matched IgG as control IP; Western blot
[3] = biological target: T2, Grainyhead-Like 2 (GRHL2) (human (endogenous in MCF7)) (UniProt Q6ISB3); experiment: co-IP; endogenous GRHL2 precipitated with anti-GRHL2 antibody from MCF7 lysate (ELB: 300 mM NaCl, 0.1% IGEPAL CA-630), Dynabeads Protein G, 4°C; species-matched IgG as control IP; Western blot
T2 sequence: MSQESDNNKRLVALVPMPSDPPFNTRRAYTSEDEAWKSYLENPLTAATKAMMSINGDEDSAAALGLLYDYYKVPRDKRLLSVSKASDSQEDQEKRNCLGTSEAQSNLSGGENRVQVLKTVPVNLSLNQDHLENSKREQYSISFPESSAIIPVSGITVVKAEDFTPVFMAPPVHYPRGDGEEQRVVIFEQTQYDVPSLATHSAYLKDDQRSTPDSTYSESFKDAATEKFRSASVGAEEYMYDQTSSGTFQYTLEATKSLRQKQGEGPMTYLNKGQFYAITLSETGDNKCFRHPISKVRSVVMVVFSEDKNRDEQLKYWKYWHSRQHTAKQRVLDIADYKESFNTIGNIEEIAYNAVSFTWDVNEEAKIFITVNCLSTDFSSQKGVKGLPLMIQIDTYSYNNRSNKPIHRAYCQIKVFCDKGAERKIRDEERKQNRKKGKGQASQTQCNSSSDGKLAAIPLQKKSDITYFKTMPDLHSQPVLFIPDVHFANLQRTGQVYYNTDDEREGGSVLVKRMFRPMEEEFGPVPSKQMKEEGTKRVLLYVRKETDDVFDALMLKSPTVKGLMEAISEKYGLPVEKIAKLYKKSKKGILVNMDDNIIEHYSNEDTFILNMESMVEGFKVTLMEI

HDAC1 (from UniProt Q13547 1-482)
binding [1]: binds

Specificity Protein 1 (Sp1) (from UniProt P08047 1-785)
binding [1]: binds

ZNF217 (from UniProt O75362 1-1048)
binding [1]: binds

B1: T-Box 2 (TBX2) (protein, UniProt Q13207 1-712)
chain: MREPALAASAMAYHPFHAPRPADFPMSAFLAAAQPSFFPALALPPGALAKPLPDPGLAGAAAAAAAAAAAAEAGLHVSALGPHPPAAHLRSLKSLEPEDEVEDDPKVTLEAKELWDQFHKLGTEMVITKSGRRMFPPFKVRVSGLDKKAKYILLMDIVAADDCRYKFHNSRWMVAGKADPEMPKRMYIHPDSPATGEQWMAKPVAFHKLKLTNNISDKHGFTILNSMHKYQPRFHIVRANDILKLPYSTFRTYVFPETDFIAVTAYQNDKITQLKIDNNPFAKGFRDTGNGRREKRKQLTLPSLRLYEEHCKPERDGAESDASSCDPPPAREPPTSPGAAPSPLRLHRARAEEKSCAADSDPEPERLSEERAGAPLGRSPAPDSASPTRLTEPERARERRSPERGKEPAESGGDGPFGLRSLEKERAEARRKDEGRKEAAEGKEQGLAPLVVQTDSASPLGAGHLPGLAFSSHLHGQQFFGPLGAGQPLFLHPGQFTMGPGAFSAMGMGHLLASVAGGGNGGGGGPGTAAGLDAGGLGPAASAASTAAPFPFHLSQHMLASQGIPMPTFGGLFPYPYTYMAAAAAAASALPATSAAAAAAAAAGSLSRSPFLGSARPRLRFSPYQIPVTIPPSTSLLTTGLASEGSKAAGGNSREPSPLPELALRKVGAPSRGALSPSGSAKEAANELQSIQRLVSGLESQRALSPGRESPK
binding [2]: binds
binding [3]: binds
